We go through 3 molecules from PMC11807140.

The chains behind the UniProt entries cited, without tags or fusion partners.
UniProt P49454: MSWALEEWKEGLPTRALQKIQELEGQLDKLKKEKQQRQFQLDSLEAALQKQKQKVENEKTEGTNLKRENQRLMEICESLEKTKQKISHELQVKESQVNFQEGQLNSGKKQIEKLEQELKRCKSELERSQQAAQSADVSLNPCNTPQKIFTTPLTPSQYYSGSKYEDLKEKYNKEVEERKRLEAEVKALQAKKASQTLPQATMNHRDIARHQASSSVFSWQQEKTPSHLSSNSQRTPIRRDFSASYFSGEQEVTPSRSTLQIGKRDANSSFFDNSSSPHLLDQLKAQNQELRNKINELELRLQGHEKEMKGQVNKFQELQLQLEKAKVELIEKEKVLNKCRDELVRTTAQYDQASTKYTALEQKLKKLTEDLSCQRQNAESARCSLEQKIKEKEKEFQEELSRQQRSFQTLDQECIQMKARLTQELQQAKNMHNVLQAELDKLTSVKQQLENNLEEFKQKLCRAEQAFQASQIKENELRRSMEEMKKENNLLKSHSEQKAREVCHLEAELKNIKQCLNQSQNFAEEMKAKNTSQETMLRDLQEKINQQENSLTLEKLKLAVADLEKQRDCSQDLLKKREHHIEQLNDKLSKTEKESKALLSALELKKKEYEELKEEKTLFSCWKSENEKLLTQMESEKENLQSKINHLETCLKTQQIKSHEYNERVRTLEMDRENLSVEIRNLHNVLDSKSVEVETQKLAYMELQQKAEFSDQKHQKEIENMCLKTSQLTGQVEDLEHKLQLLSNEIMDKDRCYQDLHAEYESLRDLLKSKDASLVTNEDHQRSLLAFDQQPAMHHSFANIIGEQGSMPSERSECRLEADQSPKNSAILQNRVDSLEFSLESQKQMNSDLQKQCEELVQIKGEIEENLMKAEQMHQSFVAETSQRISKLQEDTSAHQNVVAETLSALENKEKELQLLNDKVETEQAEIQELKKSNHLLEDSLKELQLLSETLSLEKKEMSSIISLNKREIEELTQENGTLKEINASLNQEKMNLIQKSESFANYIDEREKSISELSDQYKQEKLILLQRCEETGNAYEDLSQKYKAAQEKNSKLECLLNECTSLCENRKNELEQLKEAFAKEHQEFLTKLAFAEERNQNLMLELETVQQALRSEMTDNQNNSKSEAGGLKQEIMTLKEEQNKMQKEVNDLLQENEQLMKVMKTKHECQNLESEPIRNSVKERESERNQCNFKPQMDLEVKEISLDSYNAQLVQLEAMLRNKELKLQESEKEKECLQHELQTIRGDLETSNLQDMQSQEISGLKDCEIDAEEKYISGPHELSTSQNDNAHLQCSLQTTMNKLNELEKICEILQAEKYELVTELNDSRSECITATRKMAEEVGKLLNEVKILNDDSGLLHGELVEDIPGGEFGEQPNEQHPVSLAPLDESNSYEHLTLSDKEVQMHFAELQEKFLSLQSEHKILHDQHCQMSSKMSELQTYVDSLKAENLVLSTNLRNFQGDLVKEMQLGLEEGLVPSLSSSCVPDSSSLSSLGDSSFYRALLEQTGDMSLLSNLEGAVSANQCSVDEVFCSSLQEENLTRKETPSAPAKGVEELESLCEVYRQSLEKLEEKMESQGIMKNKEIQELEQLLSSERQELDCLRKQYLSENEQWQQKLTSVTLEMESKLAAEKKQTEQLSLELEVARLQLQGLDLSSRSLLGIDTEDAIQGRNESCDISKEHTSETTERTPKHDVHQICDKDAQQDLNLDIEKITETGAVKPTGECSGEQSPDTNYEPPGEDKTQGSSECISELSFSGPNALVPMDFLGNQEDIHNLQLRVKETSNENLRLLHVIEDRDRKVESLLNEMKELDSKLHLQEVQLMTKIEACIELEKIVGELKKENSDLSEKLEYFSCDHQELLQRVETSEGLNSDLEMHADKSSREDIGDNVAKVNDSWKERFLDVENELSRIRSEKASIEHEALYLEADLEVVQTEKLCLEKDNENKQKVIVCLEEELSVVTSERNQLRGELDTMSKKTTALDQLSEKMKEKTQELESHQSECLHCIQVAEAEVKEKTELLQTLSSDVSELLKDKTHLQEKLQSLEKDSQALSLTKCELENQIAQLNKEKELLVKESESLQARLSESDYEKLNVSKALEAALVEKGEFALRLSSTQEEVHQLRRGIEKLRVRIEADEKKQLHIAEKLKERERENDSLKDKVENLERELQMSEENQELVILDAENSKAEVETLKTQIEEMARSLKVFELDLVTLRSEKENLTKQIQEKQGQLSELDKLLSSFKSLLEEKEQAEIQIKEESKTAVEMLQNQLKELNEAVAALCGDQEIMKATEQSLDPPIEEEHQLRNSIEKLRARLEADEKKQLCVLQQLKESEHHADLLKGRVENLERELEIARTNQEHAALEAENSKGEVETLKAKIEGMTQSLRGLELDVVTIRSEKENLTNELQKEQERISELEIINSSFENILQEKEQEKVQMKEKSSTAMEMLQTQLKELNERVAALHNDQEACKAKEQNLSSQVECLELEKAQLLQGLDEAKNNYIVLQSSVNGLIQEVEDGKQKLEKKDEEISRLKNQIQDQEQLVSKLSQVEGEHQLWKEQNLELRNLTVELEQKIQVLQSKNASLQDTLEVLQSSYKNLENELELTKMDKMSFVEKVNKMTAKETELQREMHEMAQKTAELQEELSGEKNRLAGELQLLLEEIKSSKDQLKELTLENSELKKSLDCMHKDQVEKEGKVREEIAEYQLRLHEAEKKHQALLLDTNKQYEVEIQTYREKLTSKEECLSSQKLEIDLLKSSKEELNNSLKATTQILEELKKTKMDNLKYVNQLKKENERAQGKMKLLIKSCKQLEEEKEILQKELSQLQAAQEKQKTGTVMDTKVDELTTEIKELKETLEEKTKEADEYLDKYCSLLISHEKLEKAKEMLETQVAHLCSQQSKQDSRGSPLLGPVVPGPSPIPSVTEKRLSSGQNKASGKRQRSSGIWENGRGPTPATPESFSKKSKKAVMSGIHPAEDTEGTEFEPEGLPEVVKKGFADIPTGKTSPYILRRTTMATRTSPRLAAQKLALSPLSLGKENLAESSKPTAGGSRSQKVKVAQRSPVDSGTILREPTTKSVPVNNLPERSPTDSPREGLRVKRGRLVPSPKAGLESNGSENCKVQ

Results are given in words; binding and its absence hold for the method and conditions named. Binding seen in cells or lysates may run through a third protein. Some results given as binding are weak or reduced against the parent protein; the word gives no strength. For part of these data: Tags and fused reporters may be left off the sequences shown.

The target of assay [1] is T1, USP4-Myc (UniProt Q13107).
T1 sequence: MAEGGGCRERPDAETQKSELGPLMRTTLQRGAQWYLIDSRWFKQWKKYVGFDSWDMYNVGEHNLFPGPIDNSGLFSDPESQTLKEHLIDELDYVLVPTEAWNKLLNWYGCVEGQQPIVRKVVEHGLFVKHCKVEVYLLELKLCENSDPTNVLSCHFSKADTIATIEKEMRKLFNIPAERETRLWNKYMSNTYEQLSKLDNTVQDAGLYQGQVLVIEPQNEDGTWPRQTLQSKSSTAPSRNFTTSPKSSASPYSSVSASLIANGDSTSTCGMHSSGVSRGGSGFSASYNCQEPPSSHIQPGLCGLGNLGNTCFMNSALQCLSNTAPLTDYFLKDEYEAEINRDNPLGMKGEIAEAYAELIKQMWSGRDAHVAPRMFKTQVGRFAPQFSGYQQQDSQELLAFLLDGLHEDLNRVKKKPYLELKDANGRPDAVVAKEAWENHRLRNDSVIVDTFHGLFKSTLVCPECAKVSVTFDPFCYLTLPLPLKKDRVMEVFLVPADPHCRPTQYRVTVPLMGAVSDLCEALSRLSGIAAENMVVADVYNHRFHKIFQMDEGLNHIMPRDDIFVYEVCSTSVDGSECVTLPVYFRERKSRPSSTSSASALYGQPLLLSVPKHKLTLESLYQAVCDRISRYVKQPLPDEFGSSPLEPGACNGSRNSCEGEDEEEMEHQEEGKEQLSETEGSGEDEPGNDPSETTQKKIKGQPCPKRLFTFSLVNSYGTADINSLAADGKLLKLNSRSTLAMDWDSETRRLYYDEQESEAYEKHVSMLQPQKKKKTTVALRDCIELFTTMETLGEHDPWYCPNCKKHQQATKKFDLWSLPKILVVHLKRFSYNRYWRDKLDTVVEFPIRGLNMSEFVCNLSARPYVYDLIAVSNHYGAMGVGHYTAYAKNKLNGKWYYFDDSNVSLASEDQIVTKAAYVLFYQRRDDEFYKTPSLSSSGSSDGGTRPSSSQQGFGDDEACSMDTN
The experiment in a line: co-IP; HCT116 cells co-transfected with CENPF-HA and USP4-Myc or its mutants, 20 µM MG132 for 6 h; IP with anti-Myc, immunoblot. In general terms: Immunoblotting shows a protein as a band on a membrane.

Assay [2] concerns the target T2, USP4 (endogenous) (human (endogenous in HCT116)) (UniProt Q13107).
T2 sequence: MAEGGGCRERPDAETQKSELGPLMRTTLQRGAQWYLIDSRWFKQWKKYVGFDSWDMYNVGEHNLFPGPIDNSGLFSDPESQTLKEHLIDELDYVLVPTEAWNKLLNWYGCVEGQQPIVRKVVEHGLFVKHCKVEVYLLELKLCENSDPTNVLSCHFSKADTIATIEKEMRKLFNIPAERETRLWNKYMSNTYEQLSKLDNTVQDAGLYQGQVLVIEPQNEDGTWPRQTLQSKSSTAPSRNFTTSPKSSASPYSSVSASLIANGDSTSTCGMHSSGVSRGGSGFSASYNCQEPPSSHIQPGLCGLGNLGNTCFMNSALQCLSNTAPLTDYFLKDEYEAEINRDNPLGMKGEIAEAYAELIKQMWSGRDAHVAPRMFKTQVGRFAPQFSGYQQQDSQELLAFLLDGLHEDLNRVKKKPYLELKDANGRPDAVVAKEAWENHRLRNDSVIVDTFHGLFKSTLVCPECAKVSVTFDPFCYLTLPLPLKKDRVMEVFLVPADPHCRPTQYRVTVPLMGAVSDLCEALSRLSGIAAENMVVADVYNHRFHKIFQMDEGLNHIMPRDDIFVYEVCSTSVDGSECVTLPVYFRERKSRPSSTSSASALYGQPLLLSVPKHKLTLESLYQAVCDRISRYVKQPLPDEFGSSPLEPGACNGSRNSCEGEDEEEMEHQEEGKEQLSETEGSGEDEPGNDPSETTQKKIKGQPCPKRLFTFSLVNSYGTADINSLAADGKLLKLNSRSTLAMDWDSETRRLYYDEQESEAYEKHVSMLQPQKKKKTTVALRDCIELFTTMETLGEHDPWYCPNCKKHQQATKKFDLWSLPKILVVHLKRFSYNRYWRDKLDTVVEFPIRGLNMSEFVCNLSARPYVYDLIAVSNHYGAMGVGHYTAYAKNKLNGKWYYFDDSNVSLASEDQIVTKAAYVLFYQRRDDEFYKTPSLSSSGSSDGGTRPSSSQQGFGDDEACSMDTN
In words: co-IP; endogenous proteins in HCT116 cell lysate; IP with anti-USP4 or anti-CENPF antibody and protein A/G agarose at 4 °C overnight, immunoblot.

Assay [3] addresses CENPF (endogenous) (human (endogenous in HCT116)) (UniProt P49454). The description is as above.

For “CENPF-HA (HA-tagged centromere protein F) (from UniProt P49454 1-3114)”, the binding entry in assay [1] is reported as “binds”. “CENPF (endogenous) (from UniProt P49454 1-3114)”: the binding result in assay [2] is listed as “binds”.

B1: USP4 (endogenous) (enzyme, UniProt Q13107 1-963)
chain: MAEGGGCRERPDAETQKSELGPLMRTTLQRGAQWYLIDSRWFKQWKKYVGFDSWDMYNVGEHNLFPGPIDNSGLFSDPESQTLKEHLIDELDYVLVPTEAWNKLLNWYGCVEGQQPIVRKVVEHGLFVKHCKVEVYLLELKLCENSDPTNVLSCHFSKADTIATIEKEMRKLFNIPAERETRLWNKYMSNTYEQLSKLDNTVQDAGLYQGQVLVIEPQNEDGTWPRQTLQSKSSTAPSRNFTTSPKSSASPYSSVSASLIANGDSTSTCGMHSSGVSRGGSGFSASYNCQEPPSSHIQPGLCGLGNLGNTCFMNSALQCLSNTAPLTDYFLKDEYEAEINRDNPLGMKGEIAEAYAELIKQMWSGRDAHVAPRMFKTQVGRFAPQFSGYQQQDSQELLAFLLDGLHEDLNRVKKKPYLELKDANGRPDAVVAKEAWENHRLRNDSVIVDTFHGLFKSTLVCPECAKVSVTFDPFCYLTLPLPLKKDRVMEVFLVPADPHCRPTQYRVTVPLMGAVSDLCEALSRLSGIAAENMVVADVYNHRFHKIFQMDEGLNHIMPRDDIFVYEVCSTSVDGSECVTLPVYFRERKSRPSSTSSASALYGQPLLLSVPKHKLTLESLYQAVCDRISRYVKQPLPDEFGSSPLEPGACNGSRNSCEGEDEEEMEHQEEGKEQLSETEGSGEDEPGNDPSETTQKKIKGQPCPKRLFTFSLVNSYGTADINSLAADGKLLKLNSRSTLAMDWDSETRRLYYDEQESEAYEKHVSMLQPQKKKKTTVALRDCIELFTTMETLGEHDPWYCPNCKKHQQATKKFDLWSLPKILVVHLKRFSYNRYWRDKLDTVVEFPIRGLNMSEFVCNLSARPYVYDLIAVSNHYGAMGVGHYTAYAKNKLNGKWYYFDDSNVSLASEDQIVTKAAYVLFYQRRDDEFYKTPSLSSSGSSDGGTRPSSSQQGFGDDEACSMDTN
For B1, the binding result in assay [3] is on record as “binds”.
